This is an account of results in patent publication US20080193932A1.

Protein sequences, listed by entry. Tags and fused reporters are not part of them. Lines headed by an entry give the natural chain unless they say otherwise; changes in a name come on top.
UniProt P30947: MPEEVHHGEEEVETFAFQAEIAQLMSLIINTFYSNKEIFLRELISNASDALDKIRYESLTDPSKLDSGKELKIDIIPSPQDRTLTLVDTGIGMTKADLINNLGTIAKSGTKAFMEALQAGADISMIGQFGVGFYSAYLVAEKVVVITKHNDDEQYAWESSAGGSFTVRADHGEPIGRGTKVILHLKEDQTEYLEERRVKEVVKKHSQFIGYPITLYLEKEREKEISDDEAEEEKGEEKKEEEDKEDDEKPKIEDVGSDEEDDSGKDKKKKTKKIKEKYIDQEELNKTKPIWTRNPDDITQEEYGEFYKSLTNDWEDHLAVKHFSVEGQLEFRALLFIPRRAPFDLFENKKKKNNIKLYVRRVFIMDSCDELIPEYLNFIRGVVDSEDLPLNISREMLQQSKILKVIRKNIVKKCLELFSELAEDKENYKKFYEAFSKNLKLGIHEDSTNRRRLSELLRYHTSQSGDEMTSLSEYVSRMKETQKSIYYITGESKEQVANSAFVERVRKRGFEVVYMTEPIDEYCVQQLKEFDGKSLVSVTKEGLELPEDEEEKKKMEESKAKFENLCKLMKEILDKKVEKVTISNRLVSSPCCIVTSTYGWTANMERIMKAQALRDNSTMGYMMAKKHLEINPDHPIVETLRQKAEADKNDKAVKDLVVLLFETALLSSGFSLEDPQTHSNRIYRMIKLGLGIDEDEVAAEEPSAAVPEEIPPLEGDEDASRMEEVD

Results are given in words; binding and its absence hold for the method and conditions named. In cells and extracts the contact can be indirect. Some entries that bind do so weakly or less than the wild type. Where a sequence is shown, tags or fusion partners need not be part of it.

The target in the assay is hsp90 inherent to rabbit reticulocyte lysate (RRL) (rabbit) (UniProt P30947). The assay is described as follows: co-elution from EGCG-conjugated Sepharose (pull-down) of His-XAP2 in RRL, SDS-PAGE, phosphoimaging and immunoblot. (In general: Immunoblotting shows a protein as a band on a membrane.)

B1: mouse histidine-tagged XAP2 (construct pET-AIP), 35S-labeled, translated in vitro in rabbit reticulocyte lysate and purified by cobalt (TALON) affinity … (protein, UniProt O08915 1-330, looked up, not shown: small tags and cut ends)
chain: MADLIARLREDGIQKRVIQEGRGELPDFQDGTKATFHFRTLHSDNEGSVIDDSRTRGKPMELIVGKKFKLPVWETIVCTMREGEIAQFLCDIKHVVLYPLVAKSLRNIAEGKDPLEGQRHCCGIAQMHEHSSLGHADLDALQQNPQPLIFHIEMLKVESPGTYQQDPWAMTDEEKAKAVPVIHQEGNRLYREGQVKEAAAKYYDAIACLKNLQMKEQPGSPDWIQLDLQITPLLLNYCQCKLVAQEYYEVLDHCSSILNKYDDNVKAYFKRGKAHAAVWNAQEAQADFAKVLELDPALAPVVSRELRALETRIRQKDEEDKARFRGIFSH
modifications: 35S-methionine label
On to B1, for which the binding entry was “binds”.
